Source: paper doi:10.1101/298208 (bioRxiv, 2018)
These are yes or no findings as the source states them, for the method shown. Binding seen in cells or lysates may run through a third protein. Some entries that bind do so weakly or less than the wild type.

The chains behind the UniProt entries cited, without tags or fusion partners. Residues count along the entry.
UniProt Q8R4W6, residues 23-414: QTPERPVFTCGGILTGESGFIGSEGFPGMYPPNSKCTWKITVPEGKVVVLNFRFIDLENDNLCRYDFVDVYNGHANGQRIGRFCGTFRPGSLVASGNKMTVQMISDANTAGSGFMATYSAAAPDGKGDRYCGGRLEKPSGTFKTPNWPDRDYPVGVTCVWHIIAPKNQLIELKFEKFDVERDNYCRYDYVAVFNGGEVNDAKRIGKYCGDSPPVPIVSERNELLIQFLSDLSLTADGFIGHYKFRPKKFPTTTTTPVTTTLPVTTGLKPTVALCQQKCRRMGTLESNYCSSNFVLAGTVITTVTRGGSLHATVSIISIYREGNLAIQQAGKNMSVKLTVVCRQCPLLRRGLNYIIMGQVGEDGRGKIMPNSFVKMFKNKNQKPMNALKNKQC

Biological target: T1, scavenger receptor class BI (SR-BI) (mouse (endogenous in 3T3-L1)) (UniProt Q61009)
T1 sequence: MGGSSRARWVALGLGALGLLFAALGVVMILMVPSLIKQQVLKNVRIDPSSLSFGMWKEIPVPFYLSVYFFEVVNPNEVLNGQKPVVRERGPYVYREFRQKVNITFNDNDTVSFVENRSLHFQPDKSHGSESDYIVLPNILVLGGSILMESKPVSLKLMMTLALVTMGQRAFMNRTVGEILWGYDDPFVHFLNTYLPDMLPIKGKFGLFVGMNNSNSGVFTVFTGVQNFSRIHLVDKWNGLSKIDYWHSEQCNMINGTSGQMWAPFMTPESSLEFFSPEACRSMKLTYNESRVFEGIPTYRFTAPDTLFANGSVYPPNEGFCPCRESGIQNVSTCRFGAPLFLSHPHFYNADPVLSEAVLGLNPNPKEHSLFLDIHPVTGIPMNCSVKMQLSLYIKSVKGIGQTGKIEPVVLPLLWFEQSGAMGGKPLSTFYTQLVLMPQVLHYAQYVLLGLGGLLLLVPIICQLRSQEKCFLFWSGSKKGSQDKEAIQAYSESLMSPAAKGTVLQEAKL
Experiment: co-IP

With “procollagen endopeptidase enhancer 2 (PCPE2) (from UniProt Q8R4W6 23-414)” the binding was “binds”.
